{
  "source": "the supplement of paper PMC8728848",
  "binders": {"B1": {"name": "Nc3LysM-2 (protein)", "chain": "AHVLQARQSVSCDFATAANTGDTCASFAAAWGITEAAFAKLNPGVSCPGNLIAGSEYCVIGTVSTGAPTTTKAATTSTTPPTTTTTTKATTLSTSTTSVSPTGPSPQMPSITSTCNKFYQVQSGDGCWSIEQAQGVSASDFMAWNKAVDAQCDNLWLGYYVCVGVKGGSSPPPTTTTKPASSSAPTPQMPNTVSNCKKFHKVVSGDGCWAIEQAAGISASDFAKWNPYVDAACDNLWLGYYVCIGV"}},
  "experiment_in_all_cases": "glycan array binding signal (z-score within array); higher = stronger binding",
  "details_in_all_cases": "glycan notation: IUPAC condensed, linker removed",
  "key": {"Gal(b1-2)Gal": {"target": "Gal(b1-2)Gal", "outline": "(§1)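 The binding signal is a Z-score computed within each array and averaged over linkers. Arrays of the same protein sequence at different concentrations or buffers were also averaged together. Data originate from 3228 arrays in the Consortium for Functional Glycomics database, kept only where the protein sequence was available.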"}, "Gal(b1-3)Gal": {"target": "Gal(b1-3)Gal", "outline": "as §1"}, "Gal(b1-3)Gal(b1-4)GlcNAc": {"target": "Gal(b1-3)Gal(b1-4)GlcNAc", "outline": "as §1"}, "Gal(b1-3)GalNAc": {"target": "Gal(b1-3)GalNAc", "outline": "as §1"}, "[1]": {"target": "Gal(b1-3)GalNAc(a1-3)[Fuc(a1-2)]Gal(b1-4)Glc", "outline": "as §1"}, "[2]": {"target": "Gal(b1-3)GalNAc(a1-3)[Fuc(a1-2)]Gal(b1-4)GlcNAc", "outline": "as §1"}, "Gal(b1-3)GalNAc(b1-3)Gal": {"target": "Gal(b1-3)GalNAc(b1-3)Gal", "outline": "as §1"}, "[3]": {"target": "Gal(b1-3)GalNAc(b1-3)Gal(a1-4)Gal(b1-4)Glc", "outline": "as §1"}, "[4]": {"target": "Gal(b1-3)GalNAc(b1-4)Gal(b1-4)Glc", "outline": "as §1"}, "[5]": {"target": "Gal(b1-3)GalNAc(b1-4)[Neu5Ac(a2-3)]Gal(b1-4)Glc", "outline": "as §1"}, "Gal(b1-3)GlcNAc": {"target": "Gal(b1-3)GlcNAc", "outline": "as §1"}, "[6]": {"target": "Gal(b1-3)GlcNAc(a1-3)Gal(b1-4)GlcNAc", "outline": "as §1"}, "[7]": {"target": "Gal(b1-3)GlcNAc(a1-6)Gal(b1-4)GlcNAc", "outline": "as §1"}, "Gal(b1-3)GlcNAc(b1-2)Man": {"target": "Gal(b1-3)GlcNAc(b1-2)Man", "outline": "as §1"}, "[8]": {"target": "Gal(b1-3)GlcNAc(b1-2)Man(a1-3)[Gal(b1-3)GlcNAc(b1-2)Man(a1-6)]Man(b1-4)GlcNAc(b1-4)GlcNAc", "outline": "as §1"}, "[9]": {"target": "Gal(b1-3)GlcNAc(b1-2)Man(a1-3)[Gal(b1-3)GlcNAc(b1-2)Man(a1-6)]Man(b1-4)GlcNAc(b1-4)[Fuc(a1-6)]GlcNAc", "outline": "as §1"}, "[10]": {"target": "Gal(b1-3)GlcNAc(b1-2)Man(a1-3)[GlcNAc(b1-4)][Gal(b1-3)GlcNAc(b1-2)Man(a1-6)]Man(b1-4)GlcNAc(b1-4)GlcNAc", "outline": "as §1"}, "[11]": {"target": "Gal(b1-3)GlcNAc(b1-2)[Gal(b1-3)GlcNAc(b1-6)]Man(a1-6)[Gal(b1-3)GlcNAc(b1-2)Man(a1-3)]Man(b1-4)GlcNAc(b1-4)GlcNAc", "outline": "as §1"}, "[12]": {"target": "Gal(b1-3)GlcNAc(b1-3)Gal(b1-3)GlcNAc", "outline": "as §1"}, "[13]": {"target": "Gal(b1-3)GlcNAc(b1-3)Gal(b1-4)Glc", "outline": "as §1"}, "[14]": {"target": "Gal(b1-3)GlcNAc(b1-3)Gal(b1-4)GlcNAc", "outline": "as §1"}, "[15]": {"target": "Gal(b1-3)GlcNAc(b1-3)Gal(b1-4)GlcNAc(b1-2)Man(a1-3)[Gal(b1-3)GlcNAc(b1-3)Gal(b1-4)GlcNAc(b1-2)Man(a1-6)]Man(b1-4)GlcNAc(b1-4)GlcNAc", "outline": "as §1"}, "[16]": {"target": "Gal(b1-3)GlcNAc(b1-3)Gal(b1-4)GlcNAc(b1-2)[Gal(b1-3)GlcNAc(b1-3)Gal(b1-4)GlcNAc(b1-6)]Man(a1-6)[Gal(b1-3)GlcNAc(b1-3)Gal(b1-4)GlcNAc(b1-2)Man(a1-3)]Man(b1-4)GlcNAc(b1-4)[Fuc(a1-6)]GlcNAc", "outline": "as §1"}, "[17]": {"target": "Gal(b1-3)GlcNAc(b1-3)Gal(b1-4)GlcNAc(b1-3)Gal(b1-4)GlcNAc(b1-2)[Gal(b1-3)GlcNAc(b1-3)Gal(b1-4)GlcNAc(b1-3)Gal(b1-4)GlcNAc(b1-6)]Man(a1-6)[Gal(b1-3)GlcNAc(b1-3)Gal(b1-4)GlcNAc(b1-3)Gal(b1-4)GlcNAc(b1-2)Man(a1-3)]Man(b1-4)GlcNAc(b1-4)[Fuc(a1-6)]GlcNAc", "outline": "as §1"}, "[18]": {"target": "Gal(b1-3)GlcNAc(b1-3)Gal(b1-4)GlcNAc(b1-6)[Gal(b1-3)GlcNAc(b1-3)]Gal(b1-4)Glc", "outline": "as §1"}, "[19]": {"target": "Gal(b1-3)GlcNAc(b1-3)Gal(b1-4)[Fuc(a1-3)]GlcNAc", "outline": "as §1"}, "[20]": {"target": "Gal(b1-3)GlcNAc(b1-3)Gal(b1-4)[Fuc(a1-3)]GlcNAc(b1-6)[Gal(b1-3)GlcNAc(b1-3)]Gal(b1-4)Glc", "outline": "as §1"}, "[21]": {"target": "Gal(b1-3)GlcNAc(b1-3)GalNAc", "outline": "as §1"}, "[22]": {"target": "Gal(b1-3)GlcNAc(b1-6)Gal(b1-4)GlcNAc", "outline": "as §1"}, "[23]": {"target": "Gal(b1-3)GlcNAc(b1-6)GalNAc", "outline": "as §1"}, "[24]": {"target": "Gal(b1-3)GlcNAc(b1-6)[Gal(b1-3)]GalNAc", "outline": "as §1"}, "Gal(b1-3)GlcNAc6S": {"target": "Gal(b1-3)GlcNAc6S", "outline": "as §1"}, "[25]": {"target": "Gal(b1-3)[Fuc(a1-4)]GlcNAc", "outline": "as §1"}, "[26]": {"target": "Gal(b1-3)[Fuc(a1-4)]GlcNAc(b1-2)Man", "outline": "as §1"}, "[27]": {"target": "Gal(b1-3)[Fuc(a1-4)]GlcNAc(b1-2)Man(a1-3)[Gal(b1-3)[Fuc(a1-4)]GlcNAc(b1-2)Man(a1-6)]Man(b1-4)GlcNAc(b1-4)[Fuc(a1-6)]GlcNAc", "outline": "as §1"}, "[28]": {"target": "Gal(b1-3)[Fuc(a1-4)]GlcNAc(b1-3)Gal(b1-3)[Fuc(a1-4)]GlcNAc", "outline": "as §1"}, "[29]": {"target": "Gal(b1-3)[Fuc(a1-4)]GlcNAc(b1-3)Gal(b1-4)[Fuc(a1-3)]GlcNAc", "outline": "as §1"}, "[30]": {"target": "Gal(b1-3)[Fuc(a1-4)]GlcNAc(b1-6)GalNAc", "outline": "as §1"}, "[31]": {"target": "Gal(b1-3)[GlcNAc(b1-6)]GalNAc", "outline": "as §1"}, "[32]": {"target": "Gal(b1-3)[Neu5Ac(a2-6)]GalNAc", "outline": "as §1"}, "[33]": {"target": "Gal(b1-3)[Neu5Ac(a2-6)]GlcNAc(b1-4)Gal(b1-4)Glc", "outline": "as §1"}, "[34]": {"target": "Gal(b1-3)[Neu5Ac(b2-6)]GalNAc", "outline": "as §1"}, "Gal(b1-4)Gal": {"target": "Gal(b1-4)Gal", "outline": "as §1"}, "[35]": {"target": "Gal(b1-4)GalNAc(a1-3)[Fuc(a1-2)]Gal(b1-4)GlcNAc", "outline": "as §1"}, "[36]": {"target": "Gal(b1-4)GalNAc(b1-3)[Fuc(a1-2)]Gal(b1-4)GlcNAc", "outline": "as §1"}},
  "note": "This is one part of the list.",
  "data": [
    {"binder": "B1", "values": [
      {"measurement": "glycan array binding signal (z-score)", "setting": "Gal(b1-2)Gal", "result": -0.601},
      {"measurement": "glycan array binding signal (z-score)", "setting": "Gal(b1-3)Gal", "result": -1.49},
      {"measurement": "glycan array binding signal (z-score)", "setting": "Gal(b1-3)Gal(b1-4)GlcNAc", "result": -0.043},
      {"measurement": "glycan array binding signal (z-score)", "setting": "Gal(b1-3)GalNAc", "result": -1.27},
      {"measurement": "glycan array binding signal (z-score)", "setting": "[1]", "result": 1.21},
      {"measurement": "glycan array binding signal (z-score)", "setting": "[2]", "result": -1.14},
      {"measurement": "glycan array binding signal (z-score)", "setting": "Gal(b1-3)GalNAc(b1-3)Gal", "result": 1.15},
      {"measurement": "glycan array binding signal (z-score)", "setting": "[3]", "result": -0.143},
      {"measurement": "glycan array binding signal (z-score)", "setting": "[4]", "result": 1.81},
      {"measurement": "glycan array binding signal (z-score)", "setting": "[5]", "result": -0.127},
      {"measurement": "glycan array binding signal (z-score)", "setting": "Gal(b1-3)GlcNAc", "result": 0.069},
      {"measurement": "glycan array binding signal (z-score)", "setting": "[6]", "result": -0.723},
      {"measurement": "glycan array binding signal (z-score)", "setting": "[7]", "result": 0.159},
      {"measurement": "glycan array binding signal (z-score)", "setting": "Gal(b1-3)GlcNAc(b1-2)Man", "result": -1.22},
      {"measurement": "glycan array binding signal (z-score)", "setting": "[8]", "result": 1.47},
      {"measurement": "glycan array binding signal (z-score)", "setting": "[9]", "result": -1.79},
      {"measurement": "glycan array binding signal (z-score)", "setting": "[10]", "result": 0.501},
      {"measurement": "glycan array binding signal (z-score)", "setting": "[11]", "result": -0.613},
      {"measurement": "glycan array binding signal (z-score)", "setting": "[12]", "result": -0.944},
      {"measurement": "glycan array binding signal (z-score)", "setting": "[13]", "result": -0.118},
      {"measurement": "glycan array binding signal (z-score)", "setting": "[14]", "result": 0.183},
      {"measurement": "glycan array binding signal (z-score)", "setting": "[15]", "result": -0.38},
      {"measurement": "glycan array binding signal (z-score)", "setting": "[16]", "result": 2.73},
      {"measurement": "glycan array binding signal (z-score)", "setting": "[17]", "result": 1.34},
      {"measurement": "glycan array binding signal (z-score)", "setting": "[18]", "result": 0.076},
      {"measurement": "glycan array binding signal (z-score)", "setting": "[19]", "result": -0.806},
      {"measurement": "glycan array binding signal (z-score)", "setting": "[20]", "result": 0.403},
      {"measurement": "glycan array binding signal (z-score)", "setting": "[21]", "result": -0.034},
      {"measurement": "glycan array binding signal (z-score)", "setting": "[22]", "result": -1.49},
      {"measurement": "glycan array binding signal (z-score)", "setting": "[23]", "result": 0.973},
      {"measurement": "glycan array binding signal (z-score)", "setting": "[24]", "result": 1.5},
      {"measurement": "glycan array binding signal (z-score)", "setting": "Gal(b1-3)GlcNAc6S", "result": -1.15},
      {"measurement": "glycan array binding signal (z-score)", "setting": "[25]", "result": -0.207},
      {"measurement": "glycan array binding signal (z-score)", "setting": "[26]", "result": -0.039},
      {"measurement": "glycan array binding signal (z-score)", "setting": "[27]", "result": 0.856},
      {"measurement": "glycan array binding signal (z-score)", "setting": "[28]", "result": 0.143},
      {"measurement": "glycan array binding signal (z-score)", "setting": "[29]", "result": -0.687},
      {"measurement": "glycan array binding signal (z-score)", "setting": "[30]", "result": 0.297},
      {"measurement": "glycan array binding signal (z-score)", "setting": "[31]", "result": -0.572},
      {"measurement": "glycan array binding signal (z-score)", "setting": "[32]", "result": 0.531},
      {"measurement": "glycan array binding signal (z-score)", "setting": "[33]", "result": -1.06},
      {"measurement": "glycan array binding signal (z-score)", "setting": "[34]", "result": -1.08},
      {"measurement": "glycan array binding signal (z-score)", "setting": "Gal(b1-4)Gal", "result": -1.2},
      {"measurement": "glycan array binding signal (z-score)", "setting": "[35]", "result": -0.204},
      {"measurement": "glycan array binding signal (z-score)", "setting": "[36]", "result": -0.141}
    ]}
  ]
}
